Test results published in the supplement of paper PMC12823440, “Inhibitors supercharge kinase turnover through native proteolytic circuits” (Nature, 2025).
Structures can show the parent of a compound that is named as a salt. The list shows a part of the results. The calls rarely recur for the same compound in another form.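 Kinases, fused to nanoluciferase, were expressed in K562 cells; luminescence was measured every 4 h from 2 to 18 h as percent of control (DMSO = 100%, positive control = 0%). A time point is decreased if signal falls significantly (2 sigma). Hits were called by the authors by a rule that is not shown; the count of time points alone does not decide it.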

The chains behind the UniProt entries cited, without tags or fusion partners. Where a name states a change or a piece, a line headed by the entry shows the natural chain unless it says otherwise.
UniProt P36888, whole entry: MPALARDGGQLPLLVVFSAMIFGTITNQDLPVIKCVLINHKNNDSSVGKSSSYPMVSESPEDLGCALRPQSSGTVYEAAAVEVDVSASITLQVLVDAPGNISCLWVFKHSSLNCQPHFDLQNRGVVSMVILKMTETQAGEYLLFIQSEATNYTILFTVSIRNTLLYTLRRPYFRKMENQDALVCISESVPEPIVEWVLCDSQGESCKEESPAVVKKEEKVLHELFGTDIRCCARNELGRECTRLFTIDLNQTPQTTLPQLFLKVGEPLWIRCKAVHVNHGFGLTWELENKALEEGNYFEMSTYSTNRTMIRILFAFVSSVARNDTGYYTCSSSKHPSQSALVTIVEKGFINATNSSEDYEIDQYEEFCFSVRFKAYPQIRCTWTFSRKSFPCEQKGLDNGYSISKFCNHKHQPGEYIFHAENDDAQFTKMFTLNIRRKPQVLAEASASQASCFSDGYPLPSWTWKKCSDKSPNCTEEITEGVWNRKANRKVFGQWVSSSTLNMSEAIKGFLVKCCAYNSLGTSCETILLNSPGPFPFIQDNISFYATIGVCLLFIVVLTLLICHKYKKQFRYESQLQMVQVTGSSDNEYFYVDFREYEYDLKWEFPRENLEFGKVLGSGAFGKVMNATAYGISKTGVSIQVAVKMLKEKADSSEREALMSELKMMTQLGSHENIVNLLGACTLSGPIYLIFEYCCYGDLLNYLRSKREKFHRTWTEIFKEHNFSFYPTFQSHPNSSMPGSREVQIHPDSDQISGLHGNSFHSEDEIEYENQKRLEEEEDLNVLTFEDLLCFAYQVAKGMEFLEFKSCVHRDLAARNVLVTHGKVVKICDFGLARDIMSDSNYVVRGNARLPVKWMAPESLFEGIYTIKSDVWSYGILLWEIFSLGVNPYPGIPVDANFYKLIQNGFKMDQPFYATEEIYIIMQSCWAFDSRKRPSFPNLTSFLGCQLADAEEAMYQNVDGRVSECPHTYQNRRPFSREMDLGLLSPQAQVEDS
UniProt P06241, whole entry, looked up: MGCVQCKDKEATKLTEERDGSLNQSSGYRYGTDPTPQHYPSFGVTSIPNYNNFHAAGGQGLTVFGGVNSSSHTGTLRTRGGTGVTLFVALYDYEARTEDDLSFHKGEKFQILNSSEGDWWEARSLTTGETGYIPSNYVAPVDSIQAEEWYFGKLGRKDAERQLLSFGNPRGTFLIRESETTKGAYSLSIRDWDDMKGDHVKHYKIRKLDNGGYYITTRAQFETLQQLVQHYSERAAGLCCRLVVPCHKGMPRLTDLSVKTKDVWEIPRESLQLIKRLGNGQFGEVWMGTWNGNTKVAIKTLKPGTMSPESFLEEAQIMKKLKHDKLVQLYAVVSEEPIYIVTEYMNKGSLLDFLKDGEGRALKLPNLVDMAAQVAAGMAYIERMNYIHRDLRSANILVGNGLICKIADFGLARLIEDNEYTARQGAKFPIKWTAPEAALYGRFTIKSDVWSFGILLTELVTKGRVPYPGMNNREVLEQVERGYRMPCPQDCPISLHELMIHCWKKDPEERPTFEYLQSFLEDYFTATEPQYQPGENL
UniProt P49840: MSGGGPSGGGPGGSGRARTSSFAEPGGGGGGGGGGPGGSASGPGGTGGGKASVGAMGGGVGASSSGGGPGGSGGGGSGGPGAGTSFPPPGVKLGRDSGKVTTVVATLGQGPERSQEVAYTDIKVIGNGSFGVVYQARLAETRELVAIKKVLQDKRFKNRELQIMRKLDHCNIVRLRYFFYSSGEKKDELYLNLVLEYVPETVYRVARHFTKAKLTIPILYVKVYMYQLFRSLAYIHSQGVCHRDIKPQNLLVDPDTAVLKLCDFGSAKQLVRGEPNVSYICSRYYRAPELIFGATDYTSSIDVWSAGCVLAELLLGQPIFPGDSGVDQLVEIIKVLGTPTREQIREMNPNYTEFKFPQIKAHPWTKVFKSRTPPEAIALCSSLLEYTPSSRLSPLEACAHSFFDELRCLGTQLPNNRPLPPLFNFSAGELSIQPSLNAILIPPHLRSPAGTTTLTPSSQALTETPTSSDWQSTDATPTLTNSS
UniProt Q9Y616: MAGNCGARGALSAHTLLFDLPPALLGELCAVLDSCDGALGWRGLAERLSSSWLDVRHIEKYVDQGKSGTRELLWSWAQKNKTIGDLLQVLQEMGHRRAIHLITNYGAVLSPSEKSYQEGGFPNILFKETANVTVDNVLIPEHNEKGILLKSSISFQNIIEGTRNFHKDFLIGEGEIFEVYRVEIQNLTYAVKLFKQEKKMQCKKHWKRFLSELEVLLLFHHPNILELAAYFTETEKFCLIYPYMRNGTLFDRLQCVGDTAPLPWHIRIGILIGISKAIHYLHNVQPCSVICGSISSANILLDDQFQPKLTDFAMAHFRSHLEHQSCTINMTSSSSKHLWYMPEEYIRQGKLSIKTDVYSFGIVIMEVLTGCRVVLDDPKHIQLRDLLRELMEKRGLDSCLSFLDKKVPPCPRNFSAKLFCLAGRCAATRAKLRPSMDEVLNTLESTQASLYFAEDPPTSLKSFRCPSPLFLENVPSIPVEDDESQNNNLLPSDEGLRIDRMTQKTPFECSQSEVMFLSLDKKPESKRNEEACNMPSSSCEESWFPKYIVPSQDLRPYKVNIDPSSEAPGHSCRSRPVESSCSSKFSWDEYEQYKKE
UniProt P23458: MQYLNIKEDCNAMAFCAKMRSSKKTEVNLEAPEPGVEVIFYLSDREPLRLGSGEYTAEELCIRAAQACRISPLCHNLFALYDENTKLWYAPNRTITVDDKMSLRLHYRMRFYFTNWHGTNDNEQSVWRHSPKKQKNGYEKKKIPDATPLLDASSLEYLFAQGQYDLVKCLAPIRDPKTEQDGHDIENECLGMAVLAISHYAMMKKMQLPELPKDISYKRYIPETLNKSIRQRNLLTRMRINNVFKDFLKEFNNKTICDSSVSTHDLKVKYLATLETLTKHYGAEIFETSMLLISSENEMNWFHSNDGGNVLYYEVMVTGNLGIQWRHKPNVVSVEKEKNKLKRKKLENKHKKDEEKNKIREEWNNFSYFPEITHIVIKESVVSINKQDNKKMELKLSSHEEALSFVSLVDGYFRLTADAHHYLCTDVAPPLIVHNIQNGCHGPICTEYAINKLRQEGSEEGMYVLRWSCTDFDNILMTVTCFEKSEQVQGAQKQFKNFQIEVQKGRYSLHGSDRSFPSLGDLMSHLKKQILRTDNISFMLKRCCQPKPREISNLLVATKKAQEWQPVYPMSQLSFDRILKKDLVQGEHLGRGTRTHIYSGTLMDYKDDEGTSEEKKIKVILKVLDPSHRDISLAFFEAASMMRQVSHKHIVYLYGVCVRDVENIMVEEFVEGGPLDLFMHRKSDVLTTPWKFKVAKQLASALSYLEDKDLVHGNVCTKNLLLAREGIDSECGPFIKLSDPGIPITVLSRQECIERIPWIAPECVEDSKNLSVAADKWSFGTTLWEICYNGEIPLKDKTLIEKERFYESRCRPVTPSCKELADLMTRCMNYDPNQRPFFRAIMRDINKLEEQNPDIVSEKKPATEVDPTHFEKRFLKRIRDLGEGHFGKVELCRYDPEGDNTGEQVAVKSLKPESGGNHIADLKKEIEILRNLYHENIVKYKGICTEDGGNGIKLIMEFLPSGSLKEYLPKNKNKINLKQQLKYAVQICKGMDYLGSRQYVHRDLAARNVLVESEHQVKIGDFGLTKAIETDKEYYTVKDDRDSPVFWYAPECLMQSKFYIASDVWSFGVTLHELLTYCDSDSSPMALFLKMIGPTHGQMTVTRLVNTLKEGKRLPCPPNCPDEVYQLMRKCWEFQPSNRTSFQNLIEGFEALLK
UniProt Q8IWU2: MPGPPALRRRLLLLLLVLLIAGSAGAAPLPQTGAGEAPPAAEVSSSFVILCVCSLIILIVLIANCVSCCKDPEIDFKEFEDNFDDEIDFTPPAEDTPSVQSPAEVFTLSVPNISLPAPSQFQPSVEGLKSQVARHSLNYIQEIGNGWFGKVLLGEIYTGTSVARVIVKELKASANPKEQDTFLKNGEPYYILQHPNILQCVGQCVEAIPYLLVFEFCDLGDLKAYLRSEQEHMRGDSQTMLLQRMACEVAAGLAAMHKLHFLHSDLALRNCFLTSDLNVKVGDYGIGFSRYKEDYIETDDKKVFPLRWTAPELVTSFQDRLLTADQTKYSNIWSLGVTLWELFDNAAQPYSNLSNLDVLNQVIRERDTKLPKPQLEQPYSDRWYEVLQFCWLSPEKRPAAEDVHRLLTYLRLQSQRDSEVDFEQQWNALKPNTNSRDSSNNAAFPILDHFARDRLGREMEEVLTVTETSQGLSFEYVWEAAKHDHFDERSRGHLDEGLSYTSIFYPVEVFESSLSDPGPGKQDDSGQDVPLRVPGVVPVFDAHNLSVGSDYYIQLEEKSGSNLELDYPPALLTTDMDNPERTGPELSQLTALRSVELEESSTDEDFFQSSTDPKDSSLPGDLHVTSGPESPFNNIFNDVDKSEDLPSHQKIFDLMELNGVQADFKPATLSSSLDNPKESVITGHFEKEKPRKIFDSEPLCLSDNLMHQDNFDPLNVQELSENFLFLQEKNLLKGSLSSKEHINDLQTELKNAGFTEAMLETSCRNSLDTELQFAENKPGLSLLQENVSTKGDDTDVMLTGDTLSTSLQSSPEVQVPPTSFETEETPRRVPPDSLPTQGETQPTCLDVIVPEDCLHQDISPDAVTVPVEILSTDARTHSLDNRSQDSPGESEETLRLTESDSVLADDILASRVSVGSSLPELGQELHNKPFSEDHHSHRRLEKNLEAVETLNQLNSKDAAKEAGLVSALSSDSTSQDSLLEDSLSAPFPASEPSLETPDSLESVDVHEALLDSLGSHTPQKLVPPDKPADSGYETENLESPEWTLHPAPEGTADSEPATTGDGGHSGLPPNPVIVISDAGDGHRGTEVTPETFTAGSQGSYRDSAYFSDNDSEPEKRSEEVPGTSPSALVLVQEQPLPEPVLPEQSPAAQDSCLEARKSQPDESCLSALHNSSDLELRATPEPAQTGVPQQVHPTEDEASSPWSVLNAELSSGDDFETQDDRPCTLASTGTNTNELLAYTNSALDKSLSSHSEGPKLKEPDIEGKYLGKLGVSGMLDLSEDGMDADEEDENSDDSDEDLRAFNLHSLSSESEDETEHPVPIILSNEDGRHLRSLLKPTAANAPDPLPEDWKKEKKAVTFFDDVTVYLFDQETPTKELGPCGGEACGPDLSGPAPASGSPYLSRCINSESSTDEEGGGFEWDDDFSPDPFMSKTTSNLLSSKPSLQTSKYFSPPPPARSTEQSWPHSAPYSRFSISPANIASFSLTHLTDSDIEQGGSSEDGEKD
UniProt P07948: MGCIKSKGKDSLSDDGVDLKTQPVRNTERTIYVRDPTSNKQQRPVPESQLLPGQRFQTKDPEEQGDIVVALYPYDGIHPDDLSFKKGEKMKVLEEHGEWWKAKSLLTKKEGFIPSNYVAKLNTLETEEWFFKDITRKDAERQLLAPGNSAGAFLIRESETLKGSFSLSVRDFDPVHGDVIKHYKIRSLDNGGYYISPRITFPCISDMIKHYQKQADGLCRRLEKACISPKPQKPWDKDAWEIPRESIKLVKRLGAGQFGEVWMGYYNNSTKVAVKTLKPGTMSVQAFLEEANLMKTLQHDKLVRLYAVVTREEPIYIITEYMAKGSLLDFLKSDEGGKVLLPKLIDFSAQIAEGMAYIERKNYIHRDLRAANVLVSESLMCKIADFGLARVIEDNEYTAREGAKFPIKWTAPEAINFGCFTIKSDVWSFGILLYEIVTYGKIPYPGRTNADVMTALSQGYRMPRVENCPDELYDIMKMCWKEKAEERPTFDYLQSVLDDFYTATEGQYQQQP
UniProt Q12851: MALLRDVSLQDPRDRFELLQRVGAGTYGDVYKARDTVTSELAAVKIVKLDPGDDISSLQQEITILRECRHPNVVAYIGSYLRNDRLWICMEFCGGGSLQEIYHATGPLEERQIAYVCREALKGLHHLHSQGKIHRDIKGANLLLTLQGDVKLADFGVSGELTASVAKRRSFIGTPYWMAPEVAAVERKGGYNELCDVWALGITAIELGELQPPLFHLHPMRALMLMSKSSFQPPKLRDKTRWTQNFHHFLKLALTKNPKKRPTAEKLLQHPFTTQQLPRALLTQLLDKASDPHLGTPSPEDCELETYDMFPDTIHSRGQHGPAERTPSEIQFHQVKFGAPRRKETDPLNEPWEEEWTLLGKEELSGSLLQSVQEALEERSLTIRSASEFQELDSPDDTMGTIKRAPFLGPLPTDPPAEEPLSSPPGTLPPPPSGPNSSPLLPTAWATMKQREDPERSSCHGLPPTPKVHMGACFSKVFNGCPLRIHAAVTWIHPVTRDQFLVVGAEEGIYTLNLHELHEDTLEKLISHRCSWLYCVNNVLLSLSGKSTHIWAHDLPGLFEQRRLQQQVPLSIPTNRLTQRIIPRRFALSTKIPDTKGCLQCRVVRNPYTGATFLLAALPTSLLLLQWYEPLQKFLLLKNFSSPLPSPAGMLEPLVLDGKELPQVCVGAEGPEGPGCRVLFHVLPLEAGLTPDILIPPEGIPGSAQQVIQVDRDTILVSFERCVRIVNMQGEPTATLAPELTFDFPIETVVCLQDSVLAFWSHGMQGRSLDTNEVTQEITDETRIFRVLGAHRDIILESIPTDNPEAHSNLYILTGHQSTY

Tests used:
Experiment in all cases: kinase-Nluc reporter destabilization hit call (1 = scored as downregulated) (binary); higher = compound decreases kinase abundance
Details in all cases: K562, 2-18 h
ERN1 = ERN1 (UniProt O75460)
FGFR1 = FGFR1 (UniProt P11362)
FGFR2 = FGFR2 (UniProt P21802)
FGFR3 = FGFR3 (UniProt P22607)
FGR = FGR (UniProt P09769)
FLT3 = FLT3 (UniProt P36888)
FYN = FYN (UniProt P06241)
GSK3A = GSK3A (UniProt P49840)
HER2 = HER2 (UniProt P04626)
INSRR = INSRR (UniProt P14616)
IRAK3 = IRAK3 (UniProt Q9Y616)
JAK1 = JAK1 (UniProt P23458)
LCK = LCK (UniProt P06239)
LIMK1 = LIMK1 (UniProt P53667)
LIMK2 = LIMK2 (UniProt P53671)
LMTK2 = LMTK2 (UniProt Q8IWU2)
LYN = LYN (UniProt P07948)
MAP2K1 = MAP2K1 (UniProt Q02750)
MAP2K2 = MAP2K2 (UniProt P36507)
MAP4K2 = MAP4K2 (UniProt Q12851)

Measured: kinase-Nluc reporter destabilization hit call

C=CC(=O)Nc1cc(Nc2ncc(C(=O)OC(C)C)c(-c3cn(C)c4ccccc34)n2)c(OC)cc1N(C)CCN(C)C [Mobocertinib (succinate)]
inactive: ERN1; 10 µM 0 | FGFR1; 10 µM 0 | FGFR2; 10 µM 0 | FGFR3; 10 µM 0 | FGR; 10 µM 0 | FLT3; 10 µM 0 | FYN; 10 µM 0 | GSK3A; 10 µM 0 | HER2; 10 µM 0 | INSRR; 10 µM 0 | IRAK3; 10 µM 0 | JAK1; 10 µM 0 | LCK; 10 µM 0 | LIMK1; 10 µM 0 | LIMK2; 10 µM 0 | LMTK2; 10 µM 0 | LYN; 10 µM 0 | MAP2K1; 10 µM 0 | MAP2K2; 10 µM 0 | MAP4K2; 10 µM 0

COc1cc2c(Oc3ccc4[nH]c(C)cc4c3F)ncnc2cc1OCCCN1CCCC1 [Cediranib (maleate)]
inactive: ERN1; 2.5 µM 0 | FGFR1; 2.5 µM 0 | FGFR2; 2.5 µM 0 | FGFR3; 2.5 µM 0 | FGR; 2.5 µM 0 | FLT3; 2.5 µM 0 | FYN; 2.5 µM 0 | GSK3A; 2.5 µM 0 | HER2; 2.5 µM 0 | INSRR; 2.5 µM 0 | IRAK3; 2.5 µM 0 | JAK1; 2.5 µM 0 | LCK; 2.5 µM 0 | LIMK1; 2.5 µM 0 | LIMK2; 2.5 µM 0 | LMTK2; 2.5 µM 0 | LYN; 2.5 µM 0 | MAP2K1; 2.5 µM 0 | MAP2K2; 2.5 µM 0 | MAP4K2; 2.5 µM 0

CC(=O)c1c(C)c2cnc(Nc3ccc(N4CCNCC4)cn3)nc2n(C2CCCC2)c1=O [Palbociclib (monohydrochloride)]
inactive: ERN1; 10 µM 0 | FGFR1; 10 µM 0 | FGFR2; 10 µM 0 | FGFR3; 10 µM 0 | FGR; 10 µM 0 | FLT3; 10 µM 0 | FYN; 10 µM 0 | GSK3A; 10 µM 0 | HER2; 10 µM 0 | INSRR; 10 µM 0 | IRAK3; 10 µM 0 | JAK1; 10 µM 0 | LIMK1; 10 µM 0 | LIMK2; 10 µM 0 | LMTK2; 10 µM 0 | LYN; 10 µM 0 | MAP2K1; 10 µM 0 | MAP2K2; 10 µM 0 | MAP4K2; 10 µM 0

CC(C)(C)n1nc(-c2cccc3ccccc23)c2c(N)ncnc21 [1-Naphthyl PP1 (hydrochloride)]
inactive: ERN1; 10 µM 0 | FGFR1; 10 µM 0 | FGFR2; 10 µM 0 | FGFR3; 10 µM 0 | FGR; 10 µM 0 | FLT3; 10 µM 0 | FYN; 10 µM 0 | GSK3A; 10 µM 0 | HER2; 10 µM 0 | INSRR; 10 µM 0 | IRAK3; 10 µM 0 | JAK1; 10 µM 0 | LIMK1; 10 µM 0 | LIMK2; 10 µM 0 | LMTK2; 10 µM 0 | LYN; 10 µM 0 | MAP2K1; 10 µM 0 | MAP2K2; 10 µM 0 | MAP4K2; 10 µM 0

CCS(=O)(=O)N1CC(CC#N)(n2cc(-c3ncnc4[nH]ccc34)cn2)C1 [Baricitinib (phosphate)]
inactive: ERN1; 10 µM 0 | FGFR1; 10 µM 0 | FGFR2; 10 µM 0 | FGFR3; 10 µM 0 | FGR; 10 µM 0 | FLT3; 10 µM 0 | FYN; 10 µM 0 | GSK3A; 10 µM 0 | HER2; 10 µM 0 | INSRR; 10 µM 0 | IRAK3; 10 µM 0 | LCK; 10 µM 0 | LIMK1; 10 µM 0 | LIMK2; 10 µM 0 | LMTK2; 10 µM 0 | LYN; 10 µM 0 | MAP2K1; 10 µM 0 | MAP2K2; 10 µM 0 | MAP4K2; 10 µM 0

Clc1ccc(C2(c3ccc(-c4cn[nH]c4)cc3)CCNCC2)cc1
inactive: ERN1; 10 µM 0 | FGFR1; 10 µM 0 | FGFR2; 10 µM 0 | FGFR3; 10 µM 0 | FGR; 10 µM 0 | FLT3; 10 µM 0 | FYN; 10 µM 0 | GSK3A; 10 µM 0 | HER2; 10 µM 0 | INSRR; 10 µM 0 | IRAK3; 10 µM 0 | JAK1; 10 µM 0 | LCK; 10 µM 0 | LIMK1; 10 µM 0 | LIMK2; 10 µM 0 | LMTK2; 10 µM 0 | LYN; 10 µM 0 | MAP2K1; 10 µM 0 | MAP2K2; 10 µM 0 | MAP4K2; 10 µM 0
